Laboratory results: PubChem BioAssay AID1347076 (National Center for Advancing Translational Sciences (NCATS), 2019)
Out of some 400,000 compounds screened, about 13,000 (3.2%) were called active. The inconclusive results got no clear call from the source; some entries with a clear call stand among them for comparison. Calls come from the whole dose curve; as a rule, active = well fitted cell-killing curve with a large enough effect; inconclusive = small, poorly fitted or top-dose-only effect, or effect the other way; inactive = flat fitted curve, though single readings scatter. Potencies of inconclusive entries are doubtful fits and often do not repeat.

test: qHTS assay for MDR1-selective chemotherapeutics: Primary screen using the drug-selected MDR subline cells KB-V1; conditions: KB-V1 MDR cells viability, CellTiter-Glo, 72 h; activity change, negative = cytotoxicity: at 46.1 µM (top of the series); note: nearly all actives have a fitted effect of over 60% in size
How it was run: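 KB-V1 MDR subline cells in DMEM (phenol-red free, 10% FBS) exposed to compounds in qHTS concentration series for 72 h at 37 degrees C. Viability read by CellTiter-Glo luminescence; concentration-effect curves fitted after normalization and correction.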
% is set by controls: 0 for no effect and ±100 for the full control effect; potency is the fitted concentration of half-maximal effect.

Question: With C=Cc1ccc(CSc2nc(-c3ccc(Cl)cc3)nc3c2Cc2c(CO)cnc(C)c2O3)cc1 as the compound, how does the Potency read?
Answer: The Potency was “inactive”.

Question: With Cn1c(Cl)c(C(=O)Nc2ccc(Cl)cc2)c2ccccc21 as the compound, how does the Potency read?
Answer: Its Potency is active: 20.6 µM.

Question: Which Potency does the source give for CCOc1ccc(-n2c(-c3ccc(OC)cc3)cc3c2CC(C)(C)CC3=O)cc1 here?
Answer: The Potency was inconclusive: 32.6 µM [cytotoxic, single point].

Question: Which Potency does the source give for CC1CN(c2ccc([N+](=O)[O-])cc2C#N)CC(C)O1 (configuration not stated) here?
Answer: Its Potency is inconclusive: 20.6 µM [cytotoxic, single point].

Question: Which Potency does the source give for COc1cccc(C(Nc2ccccc2)c2ccc3ccc(C)nc3c2O)c1 (configuration not stated) here?
Answer: The Potency was inconclusive: 5.8 µM [cytotoxic, partial curve].

Question: With C/C=C/c1ccc(Oc2nnnn2-c2ccc(C(N)=O)cc2)c(OC)c1 as the compound, how does the Potency read?
Answer: The Potency was inconclusive: 29.1 µM [cytotoxic, single point].

Question: With Cn1c(C(=O)N2CCN(c3ccc(Cl)cc3)CC2)cc2c(=O)[nH]c3ccccc3c21 as the compound, how does the Potency read?
Answer: The Potency was “inactive”.

Question: With COc1cc(NC(=O)CN2CCC(C)CC2)c(C)cc1[N+](=O)[O-] as the compound, how does the Potency read?
Answer: Its Potency is inconclusive: 9.2 µM [cytotoxic, partial curve].

Question: Which Potency does the source give for O=C1C(=O)N(C2CCN(C(=O)c3ccc(F)cc3)CC2)CCN1Cc1ccc(F)cc1 here?
Answer: The Potency was inconclusive: 7.31 µM [rising, partial curve, poor fit].

Question: With COc1ccc(C(=O)/C=C/N(C)C)cc1OC as the compound, how does the Potency read?
Answer: The Potency was inconclusive: 29.1 µM [cytotoxic, single point].

Question: Which Potency does the source give for Cc1nc(N)sc1-c1csc(N(C)c2ccc(O)cc2)n1 here?
Answer: The Potency was inconclusive: 25.9 µM [cytotoxic, single point].

Question: For COc1ccc(-c2cc(C(F)(F)F)nc(NCc3ccccc3)n2)cc1OC, which Potency is on record?
Answer: Its Potency is “inactive”.

Question: With NC(=O)C1(N2CCCCC2)CCN(C(=S)Nc2ccc(F)c(Cl)c2)CC1 as the compound, how does the Potency read?
Answer: Its Potency is inconclusive: 29.1 µM [rising, single point].

Question: Which Potency does the source give for COc1ccc2c(c1)c(CC(=O)NCc1cc([N+](=O)[O-])ccc1O)c(C)n2C(=O)c1ccc(Cl)cc1 here?
Answer: Its Potency is inconclusive: 18.4 µM [cytotoxic, single point].

Question: Which activity change, negative = cytotoxicity does the source give for CN(C)c1ccc(P(=O)(OCc2ccccc2)C(O)c2ccccc2F)cc1 (configuration not stated) here?
Answer: The activity change, negative = cytotoxicity was inconclusive: -2.81%.

Question: For Cc1ccc(S(=O)(=O)N2CC3(C)CN(S(=O)(=O)c4ccc(C)cc4)CC(C)(C2)C3O)cc1 (configuration not stated), which Potency is on record?
Answer: Its Potency is inconclusive: 6.51 µM [cytotoxic, partial curve].

Question: With Cc1cc(Nc2cccc(F)c2)nc(NCc2ccccc2)n1 as the compound, how does the Potency read?
Answer: The Potency was active: 8.2 µM.

Question: Which Potency does the source give for O=C1c2ccccc2C(=O)c2c(NCCCN(CCO)CCO)cccc21 here?
Answer: The Potency was inconclusive: 29.1 µM [cytotoxic, single point].

Question: Which Potency does the source give for CC12CCC(C(=O)N(CCCN3CCN(Cc4ccccc4)CC3)C1=O)C2(C)C (configuration not stated) here?
Answer: Its Potency is inconclusive: 10.3 µM [cytotoxic, partial curve].

Question: With CC1(C(=O)NCc2cccs2)Cc2c(-c3ccccc3)ccnc2O1 (configuration not stated) as the compound, how does the Potency read?
Answer: Its Potency is inconclusive: 4.11 µM [cytotoxic, full curve].

Question: For Cc1nc2cc(Oc3nc(NCCN(C)C)nc4ccsc34)ccc2s1, which Potency is on record?
Answer: The Potency was “inactive”.

Question: For Cc1oc(-c2ccccc2F)nc1CN1CCC(C(=O)NCc2ccco2)CC1, which Potency is on record?
Answer: The Potency was “inactive”.

Question: With CCOC(=O)c1sc(NNC(=O)c2ccc(F)cc2)nc1C as the compound, how does the Potency read?
Answer: The Potency was “inactive”.

Question: With Cc1csc(NC(=O)c2cc(-c3ccco3)nc3ccccc23)n1 as the compound, how does the Potency read?
Answer: The Potency was “inactive”.

Question: Which Potency does the source give for Cc1cccc(NC(=O)COC(=O)CCc2c[nH]c3ccccc23)c1C here?
Answer: Its Potency is inconclusive: 0.291 µM [cytotoxic, partial curve, poor fit].

Question: For CCOc1cccc(NC(=O)CSc2ncc(-c3ccc(Cl)cc3)[nH]2)c1, which Potency is on record?
Answer: The Potency was inconclusive: 14.6 µM [rising, partial curve].

Question: Which Potency does the source give for C=CCSc1cc(C)nc2c(-c3ccccc3)cnn12 here?
Answer: Its Potency is active: 8.2 µM.

Question: With COC(=O)c1ccc(NC(=O)c2cccc(N3C(=O)C4C5C=CC(C6CC56)C4C3=O)c2)cc1 (configuration not stated) as the compound, how does the Potency read?
Answer: Its Potency is inconclusive: 2.31 µM [cytotoxic, partial curve].

Question: Which Potency does the source give for CCOC(=O)C1(Cc2ccc(Cl)cc2)CCN(C(=O)c2cc(C)nc(C)n2)CC1 here?
Answer: The Potency was inconclusive: 29.1 µM [cytotoxic, single point].

Question: For CC(C)NC(=O)C(=O)NNC(=O)C12CC3CC(CC(C3)C1)C2, which Potency is on record?
Answer: Its Potency is inconclusive: 29.1 µM [cytotoxic, partial curve, poor fit].

Question: For CC(=O)N1c2ccc(S(=O)(=O)NCCc3cccc(C)c3)cc2CC1C (configuration not stated), which Potency is on record?
Answer: The Potency was “inactive”.

Question: For CCCN(CCC)c1nc(N)nc(C#N)n1, which Potency is on record?
Answer: The Potency was inconclusive: 29.1 µM [rising, single point].

Question: With Cn1c(-c2ccc(Br)o2)nc2ccccc21 as the compound, how does the Potency read?
Answer: The Potency was inconclusive: 16.4 µM [cytotoxic, partial curve].

Question: With Cc1oc(-c2ccc(C(=O)N(C)Cc3ccccc3)cc2)nc1CN1CCc2ccccc21 as the compound, how does the Potency read?
Answer: The Potency was active: 13 µM.

Question: For CCCCCc1c(C)nc(Nc2ccc(F)cc2)[nH]c1=O, which Potency is on record?
Answer: The Potency was inconclusive: 29.1 µM [cytotoxic, single point].

Question: Which Potency does the source give for CC(=O)/C(C#N)=C1\NC(=O)C(Cc2ccc(C)c(C)c2)S1 (configuration not stated) here?
Answer: Its Potency is active: 5.8 µM.

Question: With CCN(CC(=O)NC1CCS(=O)(=O)C1)C(=O)c1ccc(OC)c([N+](=O)[O-])c1 (configuration not stated) as the compound, how does the Potency read?
Answer: Its Potency is inconclusive: 18.4 µM [rising, single point].

Question: For COc1ccc(N(C)S(=O)(=O)c2cccc(C(=O)NC3=NCCS3)c2)cc1, which Potency is on record?
Answer: Its Potency is “inactive”.

Question: With COc1cccc(/C=N/n2cnc3cc(C)c(C)cc32)c1OC as the compound, how does the Potency read?
Answer: The Potency was inconclusive: 8.2 µM [cytotoxic, partial curve].

Question: For Cc1cc(Cl)ccc1NC(=S)NCCc1ccc(Cl)cc1, which Potency is on record?
Answer: The Potency was “inactive”.

Question: For Cc1ccc(NC(=O)C2(C)CCN2C(=O)c2ccccc2CCc2ccccc2)cc1C (configuration not stated), which Potency is on record?
Answer: The Potency was inconclusive: 29.1 µM [cytotoxic, single point].

Question: Which Potency does the source give for Cc1cccc(C(=O)NC2CCN(CC(=O)Nc3ccccc3Cl)CC2)c1 here?
Answer: Its Potency is inconclusive: 20.6 µM [cytotoxic, single point].

Question: With COc1ccc(CN2C(=O)CCC2(C)c2nnnn2-c2c(C)cccc2C)cc1 (configuration not stated) as the compound, how does the Potency read?
Answer: The Potency was inconclusive: 16.4 µM [cytotoxic, partial curve].

Question: Which Potency does the source give for CC(C)c1ccc(OCC(=O)N2CCN(c3ccccn3)CC2)c(Br)c1 here?
Answer: Its Potency is inconclusive: 29.1 µM [cytotoxic, single point].

Question: For Cc1cc(/C=C(\C#N)C(=O)NCc2cccs2)c(C)n1-c1ccccc1F, which Potency is on record?
Answer: Its Potency is inconclusive: 20.6 µM [cytotoxic, single point].

Question: For CCOc1ccccc1NC(=O)c1c(NC(=O)C(C)Oc2cccc(Cl)c2)sc2c1CCCCC2 (configuration not stated), which Potency is on record?
Answer: Its Potency is inconclusive: 3.66 µM [cytotoxic, full curve, poor fit].

Question: With CN=c1sc2ccccc2n1CC(O)c1ccccc1 (configuration not stated) as the compound, how does the Potency read?
Answer: Its Potency is inconclusive: 23.1 µM [cytotoxic, single point].

Question: For CC(=O)Nc1cccc(Oc2cc(C#N)c(C#N)cc2N2CCCCCC2)c1, which Potency is on record?
Answer: The Potency was active: 23.1 µM.

Question: For Cc1ccccc1NC(=O)CSc1ncc2c(n1)-c1ccccc1N(C)S2(=O)=O, which Potency is on record?
Answer: Its Potency is “inactive”.

Question: With O=C(Nc1nc(-c2ccc(Cl)cc2Cl)cs1)C1CCCO1 (configuration not stated) as the compound, how does the Potency read?
Answer: Its Potency is inconclusive: 29.1 µM [cytotoxic, single point].

Question: Which Potency does the source give for Fc1ccccc1Nc1nc2ccccc2o1 here?
Answer: Its Potency is inconclusive: 25.9 µM [cytotoxic, single point].

Question: Which Potency does the source give for CCCOc1ccc(-c2c(C(=O)N/N=C/c3ccncc3)nnn2-c2nonc2N)cc1 here?
Answer: Its Potency is inconclusive: 29.1 µM [rising, single point].

Question: For Cc1cccc(NC(=O)CSc2nnc(-c3ccccc3C)o2)c1, which Potency is on record?
Answer: Its Potency is inconclusive: 23.1 µM [cytotoxic, single point].

Question: With CCC(C)Sc1cc(C)c(C#N)c2nc3ccccc3n12 (configuration not stated) as the compound, how does the Potency read?
Answer: Its Potency is inconclusive: 18.4 µM [cytotoxic, partial curve, poor fit].

Question: For Cc1ccc2c(c1)CO[C@@]21O[C@H](CCO)C[C@H](O)[C@H]1O, which Potency is on record?
Answer: Its Potency is “inactive”.

Question: Which Potency does the source give for O=C(COC(=O)c1cc([N+](=O)[O-])ccc1N1CCOCC1)c1ccc(Br)cc1 here?
Answer: Its Potency is inconclusive: 14.6 µM [cytotoxic, partial curve].

Question: Which Potency does the source give for Cc1cc(Nc2ccc(F)cc2)n2nc(C)nc2n1 here?
Answer: Its Potency is inconclusive: 0.0058 µM [rising, full curve, poor fit].

Question: Which Potency does the source give for CCC1=Nc2cc(C(=O)NCCc3ccccc3)ccc2Sc2ccc(Cl)cc21 here?
Answer: The Potency was “inactive”.

Question: For COc1ccccc1CN(C)C(=O)c1cccc(S(=O)(=O)N2CCN(Cc3ccccc3)CC2)c1, which Potency is on record?
Answer: Its Potency is inconclusive: 7.31 µM [cytotoxic, partial curve].

Question: With Cc1cc(-c2ccc(C)c(S(=O)(=O)NCCC(C)N3CCCCCC3)c2)on1 (configuration not stated) as the compound, how does the Potency read?
Answer: Its Potency is inconclusive: 0.0058 µM [rising, full curve, poor fit].

Question: For CC1(C)Cc2nc3sc4c(SCC(=O)NC(c5ccccc5)c5ccccc5)ncnc4c3cc2CO1, which Potency is on record?
Answer: Its Potency is inconclusive: 23.1 µM [cytotoxic, single point].

Question: For CC1(Cc2cc(Cl)ccc2C(F)(F)F)C(=O)Nc2ccc(S(=O)(=O)NC3CCCCC3)cc21 (configuration not stated), which Potency is on record?
Answer: The Potency was inconclusive: 29.1 µM [cytotoxic, single point].

Question: With CC1=C(C(=O)Nc2ccc(Cl)cc2)C(c2cccs2)n2nc(SCc3cccc(Cl)c3)nc2N1 (configuration not stated) as the compound, how does the Potency read?
Answer: Its Potency is inconclusive: 20.6 µM [rising, partial curve, poor fit].

Question: Which Potency does the source give for CCn1c(Oc2ccc(F)cc2F)nc2c1c(=O)n(C)c(=O)n2C here?
Answer: Its Potency is inconclusive: 13 µM [cytotoxic, partial curve].

Question: With CC1CC(C)CN(C(=O)c2ccc3c(c2NCCO)C(=O)c2ccccc2C3=O)C1 (configuration not stated) as the compound, how does the Potency read?
Answer: The Potency was inconclusive: 2.06 µM [cytotoxic, partial curve].

Question: For CCOC(=O)c1c(NC(=O)CSc2nnnn2-c2ccc(OC)cc2)sc(C)c1C, which Potency is on record?
Answer: The Potency was inconclusive: 23.1 µM [cytotoxic, single point].

Question: For CCOC(=O)c1c(NC(=O)CN2CCN(C(=O)c3ccco3)CC2)sc2c1CCCC2, which Potency is on record?
Answer: The Potency was “inactive”.
